Source: PubChem BioAssay AID1259424 (University of Nebraska Medical Center, 2018)

Aim: 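Find knockdowns that reproduce the expression shifts seen after KSR1 loss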 (primary screen)
Cell system: human HCT116 colon cancer cells
Reagents: siRNA pool against human genes, 50 nM
Read-out: 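Log2 levels of six mRNAs (branched-DNA multiplex), adjusted by two reference genes and the non-targeting median, then scored against the average KSR1 knockdown pattern as Pearson r and euclidean distance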
Reading the numbers: mean correlation with KSR1 profile: higher = expression change more like KSR1 knockdown
Shown is an unselected part of about 14,000 reagents tested. 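Higher correlation or smaller distance means closer resemblance to KSR1 loss; control wells, including KSR1 knockdowns, recur on many plates.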 Not all columns of the deposit are shown. Not stated in the record: the time to read-out.

gene knocked down | mean correlation with KSR1 profile
DLAT (dihydrolipoamide S-acetyltransferase) | 0.0978
VIPR1 (vasoactive intestinal peptide receptor 1) | 0.686
ELAVL3 (ELAV like RNA binding protein 3) | 0.79
ZFP91 (ZFP91 zinc finger protein, atypical E3 ubiquitin ligase) | 0.504
TMEM62 (transmembrane protein 62) | 0.131
ENTPD2 (ectonucleoside triphosphate diphosphohydrolase 2) | -0.369
TP53TG5 (TP53 target 5) | 0.473
LIFR (LIF receptor subunit alpha) | 0.116
ADGRA2 (adhesion G protein-coupled receptor A2) | 0.772
CNPY3 (canopy FGF signaling regulator 3) | -0.241
TPSB2 (tryptase beta 2) | 0.107
SPATA1 (spermatogenesis associated 1) | 0.756
CNTN2 (contactin 2) | -0.487
CHRM5 (cholinergic receptor muscarinic 5) | -0.597
SLC25A4 | 0.298
ZDHHC4 (zDHHC palmitoyltransferase 4) | 0.145
SLC16A4 | -0.119
ECEL1 (endothelin converting enzyme like 1) | -0.602
INIP (INTS3 and NABP interacting protein) | 0.152
BAIAP2L1 (BAR/IMD domain containing adaptor protein 2 like 1) | -0.0907
HECTD1 (HECT domain E3 ubiquitin protein ligase 1) | 0.209
MCM6 (minichromosome maintenance complex component 6) | 0.456
KIF25-AS1 (KIF25 antisense RNA 1) | -0.227
ARSF (arylsulfatase F) | -0.179
LOXL4 (lysyl oxidase like 4) | 0.527
HUNK (hormonally up-regulated Neu-associated kinase) | 0.58
KYAT3 (kynurenine aminotransferase 3) | -0.598
TAF1 (TATA-box binding protein associated factor 1) | 0.372
FARS2 (phenylalanyl-tRNA synthetase 2, mitochondrial) | -0.507
CXXC1 (CXXC finger protein 1) | 0.171
FLNB (filamin B) | -0.336
SOX8 (SRY-box transcription factor 8) | -0.00599
POU4F2 (POU class 4 homeobox 2) | -0.78
SOX9 (SRY-box transcription factor 9) | 0.141
NTN4 (netrin 4) | 0.00692
RABEPK (Rab9 effector protein with kelch motifs) | 0.137
GON4L (gon-4 like) | -0.575
C11orf58 (chromosome 11 open reading frame 58) | 0.235
PNPLA4 | -0.623
GDE1 (glycerophosphodiester phosphodiesterase 1) | -0.291
IFT81 (intraflagellar transport 81) | -0.644
MPV17L2 (MPV17 mitochondrial inner membrane protein like 2) | 0.764
ACRBP (acrosin binding protein) | -0.169
FA2H (fatty acid 2-hydroxylase) | -0.527
CYP3A4 (cytochrome P450 family 3 subfamily A member 4) | 0.00412
CEND1 (cell cycle exit and neuronal differentiation 1) | -0.53
STX8 (syntaxin 8) | -0.55
GPR174 (G protein-coupled receptor 174) | -0.0013
CYP3A43 (cytochrome P450 family 3 subfamily A member 43) | 0.648
CAT (catalase) | 0.389
SNRPB2 (small nuclear ribonucleoprotein polypeptide B2) | -0.546
POLR3B (RNA polymerase III subunit B) | -0.36
RBP2 (retinol binding protein 2) | 0.163
COL5A1 (collagen type V alpha 1 chain) | -0.455
IFI27 (interferon alpha inducible protein 27) | 0.00337
CDT1 (chromatin licensing and DNA replication factor 1) | -0.854
CD164 (CD164 molecule) | -0.0353
AAMP (angio associated migratory cell protein) | 0.58
TULP1 (TUB like protein 1) | 0.555
TBC1D22A (TBC1 domain family member 22A) | -0.968
PDK3 (pyruvate dehydrogenase kinase 3) | 0.566
PHYH (phytanoyl-CoA 2-hydroxylase) | 0.195
ZDHHC2 (zDHHC palmitoyltransferase 2) | -0.146

Reformatted: entries from further up
{"gene knocked down": "SOX8 (SRY-box transcription factor 8)", "mean correlation with KSR1 profile": -0.00599}
{"gene knocked down": "POU4F2 (POU class 4 homeobox 2)", "mean correlation with KSR1 profile": -0.78}
{"gene knocked down": "SOX9 (SRY-box transcription factor 9)", "mean correlation with KSR1 profile": 0.141}
{"gene knocked down": "NTN4 (netrin 4)", "mean correlation with KSR1 profile": 0.00692}
{"gene knocked down": "RABEPK (Rab9 effector protein with kelch motifs)", "mean correlation with KSR1 profile": 0.137}
